Test results from patent US20130045184A1 (published 2013).
No constants are given. Whether binding was seen depends on the method and setting. A result given as binding can be weak or reduced; the word gives no strength.

Tests used:
[1] = target: FA-1 antigen on murine sperm (murine); test: in vitro sperm binding assay, staining, light microscopy
[2] = target: FA-1 antigen on murine sperm (murine); test: in vitro binding of scFv-expressing lactobacilli to mouse sperm, light micrograph

B1: scFv J102 (scFv)
scFv: MAEVQLLESGGGLVQPGGSLRLSCAASGFTFSDHDMHWVRQAPGKGLEWVSGISWKSDSMAYRDSVKGRFTISRDNSKNTLYLQMNSLRAEDTAVYYCARDQEHFDFDYWGQGTLVTVSSGSAGGGGSGGGGSGGGGSDIVLTQPPSASGTPGQRVTISCSGSSSNLGSNTVNWYQQLPGKAPKLLIYDNNQRPSGVPDRFSGSKSGTSASLAISGLRSEDEADYYCAAWDDSLSGLVFGTGTKLTVL
notes: Human-derived scFv from a phage display library; also called Clone J102
For B1, which binding [1] is on record?
Its binding is “binds”.

And the binding [2]?
Its binding is “binds”.
